The record followed here is the supplement of paper PMC9015667.

The structures appear in SMILES notation. Where a name gives a salt, the structure may show the parent alone. The list shows a part of the results. Single values are uncertain, as repeats are few or missing.

This experiment concerns M249R (matched melanoma line resistant to BRAF inhibitors). In words: reduction in cell viability relative to untreated/vehicle; higher = more growth inhibition. Conditions: 200 nM; 72 h.
In the case of `CCCCc1ccc(NS(=O)(=O)c2ccc(C)c(C(=O)N3CCN(c4cccc(C)c4C)CC3)c2)cc1`, the “reduction in cell viability” value is below 0%. As for `COc1ccccc1N1CCN(CC(O)COc2cccc3ccccc23)CC1` (stereo not given) [Naftopidil], the “reduction in cell viability” value is below 0%. For the molecule `CN[C@H]1CN(c2ccc3c(=O)c(C(=O)O)cn(-c4nccs4)c3n2)C[C@@H]1OC` [Vosaroxin], the “reduction in cell viability” value was below 0%. Turning to `NC(=O)OCC(COC(N)=O)c1ccccc1` [Felbamate], the “reduction in cell viability” value is below 0%. Then `CC/C(=C(\c1ccc(O)cc1)c1ccc(OCCNC)cc1)c1ccccc1` [Endoxifen], with below 0%. Then `CC[C@H]1OC(=O)[C@H](C)[C@@H](O[C@H]2C[C@@](C)(OC)[C@@H](O)[C@H](C)O2)[C@H](C)[C@@H](O[C@@H]2O[C@H](C)C[C@H](N(C)C)[C@H]2O)[C@](C)(O)C[C@@H](C)CN(C)[C@H](C)[C@@H](O)[C@]1(C)O` [Azithromycin], with below 0%; and `Nc1ccn([C@@H]2CO[C@H](CO)O2)c(=O)n1` [Troxacitabine], with 8.8%; and `COc1cc(N2CCC(N3CCN(C)CC3)CC2)ccc1Nc1ncc(Cl)c(Nc2ccccc2S(=O)(=O)C(C)C)n1`, with below 0%. In the case of `COC(=O)N1CCN(Cc2cccc(NC(=O)Nc3ccc(C)nc3)c2F)CC1` [Omecamtiv mecarbil], the “reduction in cell viability” value is below 0%. Then `COc1ccc(C(=O)CC(=O)c2ccc(C(C)(C)C)cc2)cc1` [Avobenzone], with below 0%.

As to `C=CC(=O)N1CCc2ccc(-n3c(=O)ccc4cnc5ccc(-c6cnn(C)c6)cc5c43)cc21`, the “reduction in cell viability” value is below 0%. In the case of `O=c1ccc2ccc(O)c(O)c2o1` [Daphnetin], the “reduction in cell viability” value was below 0%.

`CO[C@H]1/C=C\C=C(/C)C(=O)NC2=CC(=O)C(NCCN(C)C)=C(C[C@@H](C)C[C@H](OC)[C@H](O)[C@@H](C)/C=C(\C)[C@@H]1OC(N)=O)C2=O` [Alvespimycin hydrochloride]: the “reduction in cell viability” value turned out to be 41%. For `O=C(O)c1cc(O)c2c(c1)C(=O)c1cccc(O)c1C2=O` [Rhein], the “reduction in cell viability” value was below 0%.

For `Cc1[nH]nc2ccc(-c3cncc(OC[C@@H](N)Cc4ccccc4)c3)cc12`, the “reduction in cell viability” value amounted to 26.9%. On to `CN1CCCN(C(=O)c2cccc(-c3ccc(/C=C4/C(=O)Nc5ccc(Cl)cc54)o3)c2)CC1`, for which the “reduction in cell viability” value came to 23.6%. As for `CCCCS(=N)(=O)CCC(N)C(=O)O` (stereo not given) [Buthionine sulfoximine], the “reduction in cell viability” value is below 0%. Consider `Cc1[nH]c(/C=C2\C(=O)Nc3ccccc32)c(C)c1CCC(=O)O` [Orantinib], for which the “reduction in cell viability” value was below 0%. For `C1CCC(C(CC2CCCCN2)C2CCCCC2)CC1` (stereo not given) [Perhexiline], the “reduction in cell viability” value is below 0%. As to `Cc1ccc(S(=O)(=O)N[C@@H](Cc2ccccc2)C(=O)CCl)cc1`, the “reduction in cell viability” value is below 0%. For `NC(=O)Cc1cccc(C(=O)c2ccccc2)c1N` [Nepafenac], the “reduction in cell viability” value is below 0%. The result for `Nc1ncnc2c1c(-c1cccc(OCc3ccccc3)c1)cn2C1CC(CN2CCCC2)C1` (stereo not given) reads below 0%; that for `N#CN=C(NCCCCCCOc1ccc(Cl)cc1)Nc1ccncc1`, 84.1%. Take `O=c1[nH]c(=O)n(C2CCCO2)cc1F` (stereo not given) [Tegafur]: the “reduction in cell viability” value is below 0%. Regarding `COc1cc2ncnc(Nc3cccc(Br)c3)c2cc1OC`, the “reduction in cell viability” value was below 0%.

As to `O=C(O)Cc1ccccc1Nc1c(Cl)cccc1Cl` [Diclofenac sodium], the “reduction in cell viability” value was below 0%.

With `CS(=O)(=O)c1cc(F)cc2c3c(n(Cc4ccc(Cl)cc4)c12)[C@@H](CC(=O)O)CC3` [Laropiprant], the “reduction in cell viability” value came out at 7.79%.

With `Cc1cnc(Nc2ccc(F)cc2Cl)nc1-c1c[nH]c(C(=O)N[C@H](CO)c2cccc(Cl)c2)c1`, the “reduction in cell viability” value amounted to 16.9%. As for `O=C(O)c1ccc(-n2nc(-c3ccccc3O)nc2-c2ccccc2O)cc1` [Deferasirox], the “reduction in cell viability” value was below 0%. With `COCC(=O)NC/C=C/c1ccc2ncnc(Nc3ccc(Oc4ccc(C)nc4)c(C)c3)c2c1`, the “reduction in cell viability” value was below 0%. For the molecule `COc1cccc2c1C(=O)c1c(O)c3c(c(O)c1C2=O)C[C@@](O)(C(=O)CO)C[C@@H]3O[C@H]1C[C@H](N)[C@@H](O)[C@H](C)O1` [Epirubicin hydrochloride], the “reduction in cell viability” value came out at 50.7%. `Cn1cc(/C=C/C(=O)c2cccc(F)c2)cc1/C=C/C(=O)NO`: the “reduction in cell viability” value was below 0%. Then `CC(C)(OCc1nn(Cc2ccccc2)c2ccccc12)C(=O)O` [Bindarit], with below 0%; and `CC[C@H](CO)Nc1nc(NCc2ccccc2)c2ncn(C(C)C)c2n1` [Seliciclib], with below 0%. As to `CC(=O)N1CCN(c2ccc(OCc3nn(C)c(C)c3-c3cccc4c(CCCOc5cccc6ccccc56)c(C(=O)O)n(Cc5cccnc5)c34)cc2)CC1`, the “reduction in cell viability” value is below 0%. Consider `NCCCC(N)(C(=O)O)C(F)F` (stereo not given) [Eflornithine Hydrochloride], for which the “reduction in cell viability” value is below 0%. Take `O=C(Nc1ncc(SCCN2CCCC2)s1)[C@]1(c2ccc(S(=O)(=O)C3CC3)cc2)C[C@H]1C1CCCCC1`: the “reduction in cell viability” value is below 0%. With `Cc1cc(Nc2cc(NC(=O)c3c(Cl)cccc3Cl)ccn2)nc(N)n1`, the “reduction in cell viability” value is 21%.

For `C#Cc1cccc(Nc2ncnc3cc(OCCOC)c(OCCO)cc23)c1`, the “reduction in cell viability” value was below 0%. With `Nc1nc(OCc2ccccc2)c2nc[nH]c2n1` [O6-Benzylguanine], the “reduction in cell viability” value was below 0%.
